Laboratory results: PubChem BioAssay AID1259254 (NCATS, 2017)

Aim: 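Gene knock-downs that lead to re-replication, shown by excess G2 DNA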 (primary screen)
Cell system: human HCT116 colorectal cancer cells
Reagents: single siRNA against human genes
Timing: 3 days
Measurement: 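Nuclei stained with Hoechst and imaged; cell-cycle phase assigned by DNA content; G2 share scaled per plate, non-targeting siRNA 0%, GMNN siRNA 100%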
Reading the numbers: G2 robust z-score and G2 cells, % of GMNN control: higher = more G2 cells, more excess DNA replication; raw share of cells in G2: higher = larger share of cells with G2 DNA content
Call rule: 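An siRNA counts as active if its G2 robust z-score lies at least 5 MADs above the screen median; here such calls match roughly 38% of GMNN control or more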
This is an unselected part of about 59,000 deposited reagents. In the full data, about 1,550 (2.6%) are marked active. 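G2 share is only a proxy for re-replication; each gene was hit by three separate siRNAs, and active genes were retested.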 Raw values are not corrected between plates. A number with no mark means an inactive call. The numbers tell different reagents against one gene apart. Not stated in the record: the amount of reagent.

| Gene | siRNA no. | G2 robust z-score | G2 cells, % of GMNN control | raw share of cells in G2 (%) |
| --- | --- | --- | --- | --- |
| NFATC3 (nuclear factor of activated T cells 3) | 1 | -0.327 | 0.669 | 3.73 |
| NFATC3 (nuclear factor of activated T cells 3) | 2 | 5.39 (active) | 40.9 | 24 |
| NFATC3 (nuclear factor of activated T cells 3) | 3 | 2.93 | 23.6 | 11.7 |
| TRIM41 (tripartite motif containing 41) | 1 | -0.0425 | 2.67 | 5.49 |
| TRIM41 (tripartite motif containing 41) | 2 | 1.17 | 11.2 | 9.78 |
| TRIM41 (tripartite motif containing 41) | 3 | 0.0155 | 3.08 | 7.1 |
| YAP1 (Yes1 associated transcriptional regulator) | 1 | -0.0374 | 2.7 | 6.87 |
| YAP1 (Yes1 associated transcriptional regulator) | 2 | 1.2 | 11.4 | 7.53 |
| YAP1 (Yes1 associated transcriptional regulator) | 3 | 0.569 | 6.97 | 9.23 |
| ELMOD3 (ELMO domain containing 3) | 1 | -0.895 | -3.33 | 3 |
| ELMOD3 (ELMO domain containing 3) | 2 | 1.83 | 15.8 | 8.15 |
| ELMOD3 (ELMO domain containing 3) | 3 | -0.599 | -1.24 | 2.03 |
| SUPT20H (SPT20 homolog, SAGA complex component) | 1 | 0.553 | 6.86 | 5.21 |
| SUPT20H (SPT20 homolog, SAGA complex component) | 2 | -0.703 | -1.98 | 5.01 |
| SUPT20H (SPT20 homolog, SAGA complex component) | 3 | 4.76 | 36.5 | 15.1 |
| TACC1 (transforming acidic coiled-coil containing protein 1) | 1 | 3.78 | 29.6 | 18.2 |
| TACC1 (transforming acidic coiled-coil containing protein 1) | 2 | 6.07 (active) | 45.7 | 22 |
| TACC1 (transforming acidic coiled-coil containing protein 1) | 3 | -0.445 | -0.163 | 3.29 |
| PRODH2 (proline dehydrogenase 2) | 1 | 0.233 | 4.61 | 5.9 |
| PRODH2 (proline dehydrogenase 2) | 2 | 2.74 | 22.2 | 14.9 |
| PRODH2 (proline dehydrogenase 2) | 3 | 0.783 | 8.48 | 7.35 |
| ASPRV1 (aspartic peptidase retroviral like 1) | 1 | -0.473 | -0.358 | 3.71 |
| ASPRV1 (aspartic peptidase retroviral like 1) | 2 | 2.07 | 17.5 | 8.33 |
| ASPRV1 (aspartic peptidase retroviral like 1) | 3 | -1.06 | -4.51 | 1.5 |
| PACSIN2 (protein kinase C and casein kinase substrate in neurons 2) | 1 | 3.45 | 27.2 | 14.1 |
| PACSIN2 (protein kinase C and casein kinase substrate in neurons 2) | 2 | 0.0245 | 3.14 | 6.33 |
| PACSIN2 (protein kinase C and casein kinase substrate in neurons 2) | 3 | 0.349 | 5.42 | 5.42 |
| ODR4 (odr-4 GPCR localization factor homolog) | 1 | 2 | 17.1 | 9.71 |
| ODR4 (odr-4 GPCR localization factor homolog) | 2 | 1.59 | 14.2 | 10.2 |
| ODR4 (odr-4 GPCR localization factor homolog) | 3 | 0.942 | 9.6 | 6.36 |
| VTCN1 (V-set domain containing T cell activation inhibitor 1) | 1 | 3.73 | 29.2 | 16.6 |
| VTCN1 (V-set domain containing T cell activation inhibitor 1) | 2 | 2.45 | 20.2 | 13.1 |
| VTCN1 (V-set domain containing T cell activation inhibitor 1) | 3 | 3.47 | 27.4 | 9.86 |
| SIGLECL1 (SIGLEC family like 1) | 1 | 0.0751 | 3.5 | 4.92 |
| SIGLECL1 (SIGLEC family like 1) | 2 | 4.45 | 34.3 | 16.3 |
| SIGLECL1 (SIGLEC family like 1) | 3 | 0.573 | 7 | 5.4 |
| GLI2 (GLI family zinc finger 2) | 1 | -0.751 | -2.32 | 2.54 |
| GLI2 (GLI family zinc finger 2) | 2 | 1.67 | 14.7 | 11.7 |
| GLI2 (GLI family zinc finger 2) | 3 | -0.286 | 0.952 | 3.45 |
| C1orf53 (chromosome 1 open reading frame 53) | 1 | -0.126 | 2.08 | 4.49 |
| C1orf53 (chromosome 1 open reading frame 53) | 2 | -0.51 | -0.623 | 3.13 |
| C1orf53 (chromosome 1 open reading frame 53) | 3 | 0.867 | 9.07 | 8.52 |
| WBP11 (WW domain binding protein 11) | 1 | 0.592 | 7.13 | 6.16 |
| WBP11 (WW domain binding protein 11) | 2 | -0.168 | 1.78 | 5.02 |
| WBP11 (WW domain binding protein 11) | 3 | 0.165 | 4.13 | 4.56 |
| PIP4P1 (phosphatidylinositol-4,5-bisphosphate 4-phosphatase 1) | 1 | -0.0729 | 2.45 | 5.13 |
| PIP4P1 (phosphatidylinositol-4,5-bisphosphate 4-phosphatase 1) | 2 | -0.415 | 0.0498 | 3.02 |
| PIP4P1 (phosphatidylinositol-4,5-bisphosphate 4-phosphatase 1) | 3 | 3.12 | 24.9 | 10.8 |

Reagents above marked active:
| Gene | siRNA no. | G2 robust z-score | G2 cells, % of GMNN control | raw share of cells in G2 (%) |
| --- | --- | --- | --- | --- |
| NFATC3 (nuclear factor of activated T cells 3) | 2 | 5.39 (active) | 40.9 | 24 |
| TACC1 (transforming acidic coiled-coil containing protein 1) | 2 | 6.07 (active) | 45.7 | 22 |
